Laboratory results published in PMC3562248.
No constants are given. Whether binding was seen depends on the method and setting. In cells and extracts the contact can be indirect. A yes stands for co-enrichment or nearness to the bait. Other partners may have been found. No binding means not detected with the bait.

Biological target: histone H3 N-terminal tail peptide (aa 1-21), unmodified, C-terminal biotin, P68431
Assay: affinity purification with mass spectrometry; biotinylated H3 1-21 peptide immobilised on streptavidin agarose beads, 2 mg HeLa nuclear extract, 3 h at 4°C, wash with 250 mM KCl; Coomassie-stained bands cut out and identified by mass spectrometry; only the target purified
Details: remark: other sources report otherwise

binding: no binding
B1: Sin3A (endogenous, HeLa), Q96ST3 1-1273 (protein)
chain: MKRRLDDQESPVYAAQQRRIPGSTEAFPHQHRVLAPAPPVYEAVSETMQSATGIQYSVTPSYQVSAMPQSSGSHGPAIAAVHSSHHHPTAVQPHGGQVVQSHAHPAPPVAPVQGQQQFQRLKVEDALSYLDQVKLQFGSQPQVYNDFLDIMKEFKSQSIDTPGVISRVSQLFKGHPDLIMGFNTFLPPGYKIEVQTNDMVNVTTPGQVHQIPTHGIQPQPQPPPQHPSQPSAQSAPAPAQPAPQPPPAKVSKPSQLQAHTPASQQTPPLPPYASPRSPPVQPHTPVTISLGTAPSLQNNQPVEFNHAINYVNKIKNRFQGQPDIYKAFLEILHTYQKEQRNAKEAGGNYTPALTEQEVYAQVARLFKNQEDLLSEFGQFLPDANSSVLLSKTTAEKVDSVRNDHGGTVKKPQLNNKPQRPSQNGCQIRRHPTGTTPPVKKKPKLLNLKDSSMADASKHGGGTESLFFDKVRKALRSAEAYENFLRCLVIFNQEVISRAELVQLVSPFLGKFPELFNWFKNFLGYKESVHLETYPKERATEGIAMEIDYASCKRLGSSYRALPKSYQQPKCTGRTPLCKEVLNDTWVSFPSWSEDSTFVSSKKTQYEEHIYRCEDERFELDVVLETNLATIRVLEAIQKKLSRLSAEEQAKFRLDNTLGGTSEVIHRKALQRIYADKAADIIDGLRKNPSIAVPIVLKRLKMKEEEWREAQRGFNKVWREQNEKYYLKSLDHQGINFKQNDTKVLRSKSLLNEIESIYDERQEQATEENAGVPVGPHLSLAYEDKQILEDAAALIIHHVKRQTGIQKEDKYKIKQIMHHFIPDLLFAQRGDLSDVEEEEEEEMDVDEATGAVKKHNGVGGSPPKSKLLFSNTAAQKLRGMDEVYNLFYVNNNWYIFMRLHQILCLRLLRICSQAERQIEEENREREWEREVLGIKRDKSDSPAIQLRLKEPMDVDVEDYYPAFLDMVRSLLDGNIDSSQYEDSLREMFTIHAYIAFTMDKLIQSIVRQLQHIVSDEICVQVTDLYLAENNNGATGGQLNTQNSRSLLESTYQRKAEQLMSDENCFKLMFIQSQGQVQLTIELLDTEEENSDDPVEAERWSDYVERYMNSDTTSPELREHLAQKPVFLPRNLRRIRKCQRGREQQEKEGKEGNSKKTMENVDSLDKLECRFKLNSYKMVYVIKSEDYMYRRTALLRAHQSHERVSKRLHQRFQAWVDKWTKEHVPREMAAETSKWLMGEGLEGLVPCTTTCDTETLHFVSINKYRVKYGTVFKAP
modifications: here or on the partner: C-terminal biotin
